21 molecules from PubChem BioAssay AID282 (DTP/NCI, 2004) can be followed below.

Structures are written as SMILES. The list is a part of this screen's results and no random one: it gathers tests that were run many times, whatever their T/C, doses with no T/C, and many T/C values between a quarter and a half above the control. Further doses and runs are listed elsewhere. T/C: endpoint of the treated group in % of that of the vehicle group. Some entries give survivors of the animals treated and no T/C: the source files T/C as zero there, which appears to mark a toxic dose or a test without result, not a measured value. Some survivor counts are full or nearly so, which does not show that the dose was tolerated: the source hardly ever lists a survival T/C far under the control, and the zero likely stands for such cases as well. Survivors were counted at the toxicity check, usually on the fifth day, unless a day is given; later deaths do not show. Schedule codes are those of the source, taken here to give the interval after Q, in days (D) or hours (H), and the number of doses after X. Some schedules carry Z or #; the key to these is not given. For survival time, this PubChem deposit counts one and a half times the control or more as active, and values a quarter to a half above the control carry no call in these data; other NCI protocols may use other cut-offs. Some entries hold several experiments; their values stand side by side, smallest first. Some T/C values carry the count of animals alive at the toxicity check (mostly the fifth day); without a count, all were alive then.

This assay has as its system BDF1 mice, L1210 terephthalanilide-resistant leukemia ip, survival T/C. Description: NCI In Vivo Anticancer Drug Screen. Data for tumor model L1210 Leukemia resistant to A Terephthalanilide; NSC 38280 (intraperitoneal) in B6D2F1 (BDF1) mice. Conditions: T/C endpoint: mean survival time, higher T/C = longer survival. On the procedure: The antitumor activity of compounds was measured in mice bearing transplantable tumors. Survival or tumor size were measured and the results are expressed as the measurement made in the treated group (T) divided by the measurement made in the vehicle treated control group (C). The tumor model used in this assay is L1210 Leukemia resistant to A Terephthalanilide; NSC 38280 (intraperitoneal) in B6D2F1 (BDF1) mice

The mark [1] stands for this setting: dose: 12.5 mg/kg/injection, schedule: Q01DX010 (ip), vehicle: saline.
The mark [2] stands for this setting: dose: 75.0 mg/kg/injection, schedule: Q01DX Z (ip), vehicle: carboxymethylcellulose (CMC).
The mark [3] stands for this setting: dose: 40.0 mg/kg/injection, schedule: Q01DX010 (ip), vehicle: saline.
The mark [4] stands for this setting: dose: 32.0 mg/kg/injection, schedule: Q01DX010 (ip), vehicle: saline.
Setting [5] is: dose: 250.0 mg/kg/injection, schedule: Q01DX Z (ip), vehicle: carboxymethylcellulose (CMC).
The mark [6] stands for this setting: dose: 500.0 mg/kg/injection, schedule: Q01DX Z (ip), vehicle: carboxymethylcellulose (CMC).
Where [7] appears, read: dose: 4.0 mg/kg/injection, schedule: Q01DX010 (ip), vehicle: saline.
The mark [8] stands for this setting: dose: 250.0 micrograms/kg/injection, schedule: Q01DX010 (ip), vehicle: saline.
Where [9] appears, read: dose: 100.0 mg/kg/injection, schedule: Q01DX010 (ip), vehicle: saline.
Setting [10] is: dose: 5.0 mg/kg/injection, schedule: Q01DX010 (ip), vehicle: saline.
Where [11] appears, read: dose: 10.0 mg/kg/injection, schedule: Q01DX010 (ip), vehicle: saline.
[12] abbreviates: dose: 200.0 mg/kg/injection, schedule: Q01DX010 (ip), vehicle: saline.

As for `N=[N+]=CC(=O)OCC(N)C(=O)O` (centres undefined), the T/C is 125 % of control (dose: 0.5 mg/kg/injection, schedule: Q01DX Z (ip), vehicle: carboxymethylcellulose (CMC)); 142 % of control (dose: 0.75 mg/kg/injection, schedule: Q01DX Z (ip), vehicle: carboxymethylcellulose (CMC)); 139 and 148 % of control (dose: 2.5 mg/kg/injection, schedule: Q01DX Z (ip), vehicle: carboxymethylcellulose (CMC)); 139 [5 of 6 alive] and 144 % of control (dose: 3.13 mg/kg/injection, schedule: Q01DX010 (ip), vehicle: saline); 130 % of control under setting [1]; 136 % of control (dose: 20.0 mg/kg/injection, schedule: Q01DX Z (ip), vehicle: carboxymethylcellulose (CMC)). The survivor count (dose: 25.0 mg/kg/injection, schedule: Q01DX010 (ip), vehicle: saline) is reported as 6 of 6; the survivor count (dose: 40.0 mg/kg/injection, schedule: Q01DX Z (ip), vehicle: carboxymethylcellulose (CMC)) was 6 of 6; the survivor count (dose: 50.0 mg/kg/injection, schedule: Q01DX Z (ip), vehicle: carboxymethylcellulose (CMC)) was 3 of 6; the survivor count under setting [2] is reported as 0 of 6; the survivor count (dose: 100.0 mg/kg/injection, schedule: Q01DX Z (ip), vehicle: carboxymethylcellulose (CMC)) is given as 0 of 6; the survivor count (dose: 150.0 mg/kg/injection, schedule: Q01DX Z (ip), vehicle: carboxymethylcellulose (CMC)) is listed as 0 of 6.

`C=CC(CN1CC1)OC(C)=O` (centres undefined): under “dose: 8.0 mg/kg/injection, schedule: Q01DX010 (ip), vehicle: saline”, the T/C is 140 % of control.

In the case of `O=C(Nc1ccc(C2=NCCN2)cc1)c1cccc(C(=O)Nc2ccc(C3=NCCN3)cc2)c1`, the T/C (dose: 64.0 mg/kg/injection, schedule: Q01DX010 (ip), vehicle: saline) is 125 % of control.

Consider `CN(C)c1ccc(/C=C\c2ccnc3ccccc23)cc1`, for which the survivor count is 6 of 6 under setting [3]; 5 of 6 (dose: 60.0 mg/kg/injection, schedule: Q01DX010 (ip), vehicle: saline); 6 of 6 under setting [2].

Turning to `CS(=O)(=O)OCCCl`, the survivor count (dose: 150.0 mg/kg/injection, schedule: Q01DX010 (ip), vehicle: saline) is listed as 6 of 6 and the survivor count (dose: 350.0 mg/kg/injection, schedule: Q01DX Z (ip), vehicle: saline) was 0 of 6.

As to `CN(C)C(=S)N=Nc1c(O)[nH]c2ccccc12`, the survivor count (dose: 200.0 mg/kg/injection, schedule: Q01DX Z (ip), vehicle: carboxymethylcellulose (CMC)) is 5 of 6.

Turning to `Nc1nc(SCc2ccccc2)c2[nH]cnc2n1`, the T/C is, setting by setting: (dose: 16.0 mg/kg/injection, schedule: Q01DX010 (ip), vehicle: saline) 133 % of control; under setting [4], 128 % of control. For the same molecule, the survivor count is recorded as 2 of 6 under setting [5] and 0 of 6 under setting [6].

Turning to `CS(=O)(=O)OCCN(CCOS(C)(=O)=O)c1ccc(N=O)cc1`, the survivor count under setting [7] is on record as 4 of 6. Besides, the T/C runs as follows: under setting [8], 135 % of control; (dose: 500.0 micrograms/kg/injection, schedule: Q01DX010 (ip), vehicle: saline) 133 % of control.

Turning to `CN(C)c1nc(N(C)C)nc(N(C)C)n1`, the survivor count was 5 of 6 (dose: 350.0 mg/kg/injection, schedule: Q01DX Z (ip), vehicle: other) and 4 of 6 (dose: 500.0 mg/kg/injection, schedule: Q01DX Z (ip), vehicle: other).

As for `CS(=O)(=O)OCC(O)C(O)COS(C)(=O)=O` (centres undefined), under setting [9], the survivor count is 6 of 6. In addition, the T/C runs as follows: (dose: 187.0 mg/kg/injection, schedule: Q01DX Z (ip), vehicle: carboxymethylcellulose (CMC)) 135 % of control; under setting [6], 129 % of control.

Regarding `Clc1ncnc2nc[nH]c12`, the survivor count (dose: 300.0 mg/kg/injection, schedule: Q01DX Z (ip), vehicle: carboxymethylcellulose (CMC)) is reported as 3 of 6.

Regarding `N#[N+]c1cnc([O-])[nH]c1=O`, the T/C by setting is: (dose: 2.5 mg/kg/injection, schedule: Q01DX010 (ip), vehicle: saline) 125 and 129 % of control; under setting [10], 127 and 134 % of control; under setting [11], 127 and 139 % of control. For the same molecule, the survivor count is recorded as 0 of 6 (dose: 20.0 mg/kg/injection, schedule: Q01DX010 (ip), vehicle: saline); 0 of 6 (dose: 40.0 mg/kg/injection, schedule: Q01DX Z (ip), vehicle: saline); 0 of 6 (dose: 80.0 mg/kg/injection, schedule: Q01DX Z (ip), vehicle: saline).

Take `O=c1[nH]c(=O)n(C2CC(O)C(CO)O2)cc1Br` (centres undefined): the T/C reads like this: (dose: 125.0 mg/kg/injection, schedule: Q01DX Z (ip), vehicle: carboxymethylcellulose (CMC)) 126 % of control; under setting [5], 128 % of control.

For `OCC1OC(n2cnc3c(=S)nc[nH]c32)C(O)C1O` (centres undefined), the T/C by setting is: under setting [3], 130 % of control; (dose: 80.0 mg/kg/injection, schedule: Q01DX010 (ip), vehicle: saline) 133 and 147 % of control; (dose: 160.0 mg/kg/injection, schedule: Q01DX010 (ip), vehicle: saline) 133 % of control.

Take `O=C(Nc1ccc(NC(=O)Nc2cccc(C3=NCCN3)c2)cc1)Nc1cccc(C2=NCCN2)c1`: the T/C (dose: 480.0 mg/kg/injection, schedule: Q01DX Z (ip), vehicle: carboxymethylcellulose (CMC)) is 127 % of control.

For `O=C1C(NC(=O)C2CCCCC2)=C(N2CC2)C(=O)C(NC(=O)C2CCCCC2)=C1N1CC1`, the T/C (dose: 62.0 mg/kg/injection, schedule: Q01DX Z (ip), vehicle: carboxymethylcellulose (CMC)) is 127 % of control. For the same molecule, the survivor count is 6 of 6 under setting [9], 6 of 6 under setting [12] and 3 of 6 under setting [6].

As to `O=C(Nc1ccc(NC2=NCCN2)cc1)c1ccc(C(=O)Nc2ccc(NC3=NCCN3)cc2)cc1`, the T/C under setting [7] was 125 % of control.

On to `CN(C)c1ccc(Nc2c3ccccc3nc3ccccc23)cc1`, for which the T/C (dose: 120.0 mg/kg/injection, schedule: Q01DX010 (ip), vehicle: saline) is 145 % of control. Besides, the survivor count (dose: 180.0 mg/kg/injection, schedule: Q01DX010 (ip), vehicle: saline) is 6 of 6.

For `CSc1ncnc2c1ncn2C1OC(CO)C(O)C1O` (centres undefined), the T/C is 126 % of control under setting [10]; 141 % of control under setting [11]; 137 % of control (dose: 11.0 mg/kg/injection, schedule: Q01DX Z (ip), vehicle: saline); 148 % of control under setting [1]; 147 % of control (dose: 22.0 mg/kg/injection, schedule: Q01DX Z (ip), vehicle: saline); 138 % of control (dose: 44.0 mg/kg/injection, schedule: Q01DX Z (ip), vehicle: saline). The survivor count under setting [4] is recorded as 5 of 6 and the survivor count (dose: 100.0 mg/kg/injection, schedule: Q01DX Z (ip), vehicle: saline) is 0 of 6.

`NC12CC3CC(CC(C3)C1)C2`: the survivor count under setting [12] was 1 of 6.

As to `O[C@H](CN1CC1)[C@@H](O)CN1CC1`, the T/C is 145 % of control (dose: 50.0 micrograms/kg/injection, schedule: Q01DX Z (ip), vehicle: saline); 141 % of control (dose: 100.0 micrograms/kg/injection, schedule: Q01DX Z (ip), vehicle: saline); 127 % of control under setting [8].
